Test results published in patent US4416871A, “Inhibition by peptides of tolerance to and physical dependence on morphine” (The United States of America as represented by the …, priority 1982, dated 1983).

Key:
[1] = tested on: morphine-dependent mice; experiment: Body temperature, body weight and mortality during 3-day morphine pellet implantation with multiple peptide injections; type: in vivo
Experimental: Male C57B1/6J, Swiss Webster, and ICR mice weighing 26±4 g (SD) were used in these studies.
The mice were randomly divided into two groups. One received SC injections of water (vehicle) while the other received the peptide under investigation (50 μg/mouse on day one). Two hours later the mice were further subdivided and each subgroup was implanted with placebo or morphine pellets. The injections of vehicle and peptide were repeated 24 and 48 hours after the first injection in their respective groups. Morphine pellets containing 75 mg of morphine free base were implanted subcutaneously (SC) between 10-11 A.M. and were removed 3 days later at the same time. The control animals were implanted with placebo pellets. Body temperature and weight were measured daily at 11 A.M. Temperature was measured using a lubricated rectal probe inserted 2.5 cm into the rectum and measured with a telethermometer (Model 43TA Yellow Springs Instrument Co., Yellow Springs, Ohio).
A similar relationship was found for the loss in body weight. Swiss Webster mice lost 16% and 14% in body weight when receiving Z-Pro-D-Leu or vehicle respectively. The C57B1/6J mice given Z-Pro-D-Leu/morphine lost 14%, while the vehicle/morphine group lost 11% in body weight during this period regardless of peptide or vehicle injections. There was one significant strain difference, i.e. a greater mortality during morphine treatment of C57B1/6J mice ([…], Binomial test).

[2] = tested on: mice; experiment: One-trial passive avoidance task (memory retention); type: in vivo

Substance: Z-Pro-D-Leu
- loss in body weight ([1]; C57B1/6J mice, peptide/morphine): 14%
- loss in body weight ([1]; Swiss Webster mice, morphine pellets): 16%
- temperatures of placebo-implanted mice over duration of pellet implantation ([1]; placebo pellets): did not change
- median step-through latency ([2]; C57B1/6J mice, 100 μg peptide SC, n=4): 180 ± 0.0 s
- median step-through latency ([2]; ICR mice, 100 μg peptide SC after training, tested 24 hours later, ±S.E., n=10): 180 ± 32.4 s
- effect on retention of memory ([2]; ICR, Swiss Webster and C57B1/6J mice): no effect in retention of memory
- median step-through latency ([2]; Swiss Webster mice, 100 μg peptide SC, n=4): 180 ± 51.9 s
